Measured values as given in article PMC4010471.

Amino acid sequences for entries named in this document (tags omitted).
UniProt Q9UBL3: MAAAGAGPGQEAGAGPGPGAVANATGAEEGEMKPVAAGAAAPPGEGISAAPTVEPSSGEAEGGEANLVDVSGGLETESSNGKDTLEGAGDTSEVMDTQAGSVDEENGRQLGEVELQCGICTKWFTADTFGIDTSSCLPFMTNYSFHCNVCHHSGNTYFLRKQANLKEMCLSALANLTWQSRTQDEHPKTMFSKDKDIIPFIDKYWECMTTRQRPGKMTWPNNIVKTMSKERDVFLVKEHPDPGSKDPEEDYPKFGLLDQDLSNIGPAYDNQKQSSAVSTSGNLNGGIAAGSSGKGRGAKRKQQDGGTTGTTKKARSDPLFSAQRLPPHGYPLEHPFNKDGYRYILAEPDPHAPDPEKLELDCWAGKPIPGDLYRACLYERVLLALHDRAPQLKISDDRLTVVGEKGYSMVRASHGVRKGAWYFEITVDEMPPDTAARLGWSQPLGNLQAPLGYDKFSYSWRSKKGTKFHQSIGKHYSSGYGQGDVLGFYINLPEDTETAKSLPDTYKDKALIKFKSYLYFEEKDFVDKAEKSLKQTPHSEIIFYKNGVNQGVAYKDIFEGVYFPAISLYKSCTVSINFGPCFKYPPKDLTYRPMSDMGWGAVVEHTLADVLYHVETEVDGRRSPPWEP
UniProt Q6ZW49: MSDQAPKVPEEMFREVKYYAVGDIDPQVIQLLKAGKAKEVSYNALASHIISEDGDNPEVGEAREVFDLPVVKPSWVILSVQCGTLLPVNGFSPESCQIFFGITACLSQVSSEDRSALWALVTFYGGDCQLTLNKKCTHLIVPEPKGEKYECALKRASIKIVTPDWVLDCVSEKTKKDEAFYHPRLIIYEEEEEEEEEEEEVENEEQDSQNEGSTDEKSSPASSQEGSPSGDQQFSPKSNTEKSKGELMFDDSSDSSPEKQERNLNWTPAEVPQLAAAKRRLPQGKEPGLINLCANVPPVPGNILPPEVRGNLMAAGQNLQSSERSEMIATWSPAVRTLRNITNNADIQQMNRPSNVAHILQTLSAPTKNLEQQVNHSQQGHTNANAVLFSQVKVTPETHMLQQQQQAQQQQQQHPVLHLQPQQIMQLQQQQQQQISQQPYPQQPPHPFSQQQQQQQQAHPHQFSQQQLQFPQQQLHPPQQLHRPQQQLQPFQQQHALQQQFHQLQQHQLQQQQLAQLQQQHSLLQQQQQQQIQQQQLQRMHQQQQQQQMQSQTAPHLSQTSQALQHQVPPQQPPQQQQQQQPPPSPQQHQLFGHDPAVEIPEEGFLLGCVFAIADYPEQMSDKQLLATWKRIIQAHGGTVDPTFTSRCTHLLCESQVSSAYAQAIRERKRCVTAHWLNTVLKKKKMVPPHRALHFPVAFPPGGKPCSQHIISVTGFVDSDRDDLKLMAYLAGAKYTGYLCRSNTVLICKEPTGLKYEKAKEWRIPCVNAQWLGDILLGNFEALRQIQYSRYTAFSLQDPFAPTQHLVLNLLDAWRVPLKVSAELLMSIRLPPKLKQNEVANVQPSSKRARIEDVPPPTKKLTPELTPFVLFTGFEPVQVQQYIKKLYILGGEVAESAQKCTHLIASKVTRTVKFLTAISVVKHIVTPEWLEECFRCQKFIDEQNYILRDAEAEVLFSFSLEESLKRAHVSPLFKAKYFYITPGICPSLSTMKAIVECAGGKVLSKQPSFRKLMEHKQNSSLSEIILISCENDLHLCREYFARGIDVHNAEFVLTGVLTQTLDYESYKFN
UniProt Q15291: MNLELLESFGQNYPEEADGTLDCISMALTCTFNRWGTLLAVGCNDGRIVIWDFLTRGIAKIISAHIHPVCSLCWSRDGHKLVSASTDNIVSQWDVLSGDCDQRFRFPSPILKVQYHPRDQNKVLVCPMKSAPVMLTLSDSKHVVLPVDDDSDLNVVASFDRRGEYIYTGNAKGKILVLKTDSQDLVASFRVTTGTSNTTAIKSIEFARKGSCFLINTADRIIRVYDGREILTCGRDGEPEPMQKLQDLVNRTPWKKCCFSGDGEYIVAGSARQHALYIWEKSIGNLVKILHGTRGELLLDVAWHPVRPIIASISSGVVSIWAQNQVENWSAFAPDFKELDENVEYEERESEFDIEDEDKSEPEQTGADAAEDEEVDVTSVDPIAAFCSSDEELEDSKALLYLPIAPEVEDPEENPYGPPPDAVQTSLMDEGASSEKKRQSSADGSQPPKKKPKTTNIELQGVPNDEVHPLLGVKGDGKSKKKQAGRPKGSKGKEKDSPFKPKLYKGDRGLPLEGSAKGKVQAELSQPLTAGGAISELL

target: Flag-HA-UTX (UniProt O15550); assay: affinity purification with mass spectrometry; tandem affinity purification (anti-Flag M2 agarose, Flag peptide elution, then HA beads, HA peptide elution) from nuclear extracts of HEK293 cells stably expressing Flag-HA-JMJD3 or Flag-HA-UTX; buffer A with 20 mM Tris-HCl pH 8.0, 300 mM NaCl; 4 °C; co-purified proteins analysed by mass spectrometry

| binding | Substance |
| --- | --- |
| binds | ASH2L (from UniProt Q9UBL3 1-628) |
| binds | PTIP (from UniProt Q6ZW49 1-1069) |
| binds | RBBP5 (from UniProt Q15291 1-538) |

These are yes or no findings as the source states them, for the method shown. In cells and extracts the contact can be indirect. A yes stands for co-enrichment or nearness to the bait. Other partners may have been found.
